{"source": "patent US9486486B2", "about": "“Bacterium and extracts of said bacterium and the use of same in therapy” (PIERRE FABRE DERMO-COSMETIQUE, priority 2010, dated 2016)", "tested_on": "Bacterium LMB64", "assay": "Antibiotic sensitivity of bacterium LMB64 (zone of inhibition)", "type": "cell-based", "conditions": "LB ½ dilution medium; antibiotic load as printed in the row (μg)", "note": "The name of at least one read-out is uncertain.", "data": [{"molecule": "O=C(O)c1cn(C2CC2)c2cc(N3CCNCC3)c(F)cc2c1=O", "note": "[Ciprofloxacin]", "values": [{"measurement": "Zone of inhibition diameter (mm) LB ½", "result": 34, "unit": "mm"}]}]}
